In publication doi:10.1101/2025.04.04.647210:
Results are given in words; binding and its absence hold for the method and conditions named. Binding seen in cells or lysates may run through a third protein. Some results given as binding are weak or reduced against the parent protein; the word gives no strength.

Amino acid sequences for entries named in this document (tags omitted).
UniProt Q9EPK5: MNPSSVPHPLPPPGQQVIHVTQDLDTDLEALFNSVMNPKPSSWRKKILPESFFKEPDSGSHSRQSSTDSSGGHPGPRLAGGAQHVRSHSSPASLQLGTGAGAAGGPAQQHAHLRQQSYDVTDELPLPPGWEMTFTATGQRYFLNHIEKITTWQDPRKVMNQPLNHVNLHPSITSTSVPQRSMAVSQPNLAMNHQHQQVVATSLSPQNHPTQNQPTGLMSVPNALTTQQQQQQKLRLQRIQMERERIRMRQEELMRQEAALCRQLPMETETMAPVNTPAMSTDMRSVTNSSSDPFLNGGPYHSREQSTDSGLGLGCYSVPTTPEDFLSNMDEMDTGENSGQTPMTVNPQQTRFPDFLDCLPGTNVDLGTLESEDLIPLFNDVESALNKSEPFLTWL
UniProt P46938: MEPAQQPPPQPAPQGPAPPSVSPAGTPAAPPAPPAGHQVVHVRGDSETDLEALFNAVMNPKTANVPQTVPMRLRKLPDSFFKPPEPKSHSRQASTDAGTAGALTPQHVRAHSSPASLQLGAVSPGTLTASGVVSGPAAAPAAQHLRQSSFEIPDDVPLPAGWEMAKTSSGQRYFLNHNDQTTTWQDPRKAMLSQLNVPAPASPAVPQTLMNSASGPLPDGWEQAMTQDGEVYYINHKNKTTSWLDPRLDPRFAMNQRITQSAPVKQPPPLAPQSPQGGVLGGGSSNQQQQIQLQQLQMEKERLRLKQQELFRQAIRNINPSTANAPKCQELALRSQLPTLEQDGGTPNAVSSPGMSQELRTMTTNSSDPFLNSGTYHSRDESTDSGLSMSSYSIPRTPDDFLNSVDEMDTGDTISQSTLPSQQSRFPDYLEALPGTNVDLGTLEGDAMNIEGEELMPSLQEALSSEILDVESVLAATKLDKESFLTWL

Molecular target: HSP90α (mouse (endogenous in murine fibroblasts)) (UniProt P07901)
Test: co-IP

Substance: Taz (from UniProt Q9EPK5 1-395)
- binding: binds

Substance: Yap (from UniProt P46938 1-488)
- binding: binds
